According to PubChem BioAssay AID320 (DTP/NCI, 2004):
The list does not hold the whole screen: its compounds were picked by chemical class. Not every dose and run of a compound is shown. T/C: endpoint of the treated group in % of that of the vehicle group. Where survival is the endpoint, this PubChem deposit counts one and a half times the control or more as active, and values a quarter to a half above the control carry no call in these data; other NCI protocols may use other cut-offs. Some T/C values are marked as having no survivor count here; that says nothing about deaths at the dose. Schedule codes are those of the source, taken here to give the interval after Q, in days (D) or hours (H), and the number of doses after X. Some entries hold several experiments; the values are given in rising order.

Test system: BDF1 mice, P329 reticulum cell sarcoma ip, survival T/C
Experiment: NCI In Vivo Anticancer Drug Screen. Data for tumor model P329 Reticulum Cell Sarcoma (intraperitoneal) in B6D2F1 (BDF1) mice
Conditions: T/C endpoint: median survival time, schedule: Q01DX010 (ip), vehicle: saline, higher T/C = longer survival
Procedure: The antitumor activity of compounds was measured in mice bearing transplantable tumors. Survival or tumor size were measured and the results are expressed as the measurement made in the treated group (T) divided by the measurement made in the vehicle treated control group (C). The tumor model used in this assay is P329 Reticulum Cell Sarcoma (intraperitoneal) in B6D2F1 (BDF1) mice

With `NC(Cc1cccc(N(CCCl)CCCl)c1)C(=O)O` (configuration not stated) the T/C (dose: 0.31 mg/kg/injection) was 123 % of control [survivor count not shown], the T/C (dose: 0.63 mg/kg/injection) was 123 [survivor count not shown] and 136 % of control [survivor count not shown] and the T/C (dose: 1.25 mg/kg/injection) was 138 [survivor count not shown] and 146 % of control [survivor count not shown]. The T/C (dose: 2.5 mg/kg/injection) was 90 [survivor count not shown] and 176 % of control [survivor count not shown].

With `CC(C(=O)O)N(CCCl)CCCl` (configuration not stated) the T/C (dose: 0.5 mg/kg/injection) was 121 [survivor count not shown] and 128 % of control [survivor count not shown], the T/C (dose: 1.0 mg/kg/injection) was 135 [survivor count not shown] and 167 % of control [survivor count not shown] and the T/C (dose: 2.0 mg/kg/injection) was 153 [survivor count not shown] and 167 % of control [survivor count not shown]. The T/C (dose: 4.0 mg/kg/injection) was 146 % of control [survivor count not shown].

With `ClCCN(CCCl)Cc1nc2ccccc2[nH]1` the T/C (dose: 1.25 mg/kg/injection) was 111 % of control [survivor count not shown], the T/C (dose: 2.5 mg/kg/injection) was 126 [survivor count not shown] and 137 % of control [survivor count not shown] and the T/C (dose: 5.0 mg/kg/injection) was 140 [survivor count not shown] and 146 % of control [survivor count not shown]. The T/C (dose: 10.0 mg/kg/injection) was 107 [survivor count not shown] and 159 % of control [survivor count not shown].

With `ClCCNCCCl` the T/C (dose: 18.8 mg/kg/injection) was 114 [survivor count not shown] and 119 % of control [survivor count not shown] and the T/C (dose: 37.5 mg/kg/injection) was 139 [survivor count not shown] and 146 % of control [survivor count not shown].

In the case of `O=C(O)CN(CCCl)CCCl`, the T/C (dose: 0.63 mg/kg/injection) is reported as 121 [survivor count not shown] and 142 % of control [survivor count not shown], the T/C (dose: 1.25 mg/kg/injection) is reported as 128 [survivor count not shown] and 139 % of control [survivor count not shown] and the T/C (dose: 2.5 mg/kg/injection) is reported as 142 [survivor count not shown] and 146 % of control [survivor count not shown].
